Test results as given in publication PMC5472039.
Results are given in words; binding and its absence hold for the method and conditions named. Binding seen in cells or lysates may run through a third protein. Some results given as binding are weak or reduced against the parent protein; the word gives no strength.

Protein sequences, listed by entry. Tags and fused reporters are not part of them. Residues count along the entry.
UniProt P05532, residues 25-979: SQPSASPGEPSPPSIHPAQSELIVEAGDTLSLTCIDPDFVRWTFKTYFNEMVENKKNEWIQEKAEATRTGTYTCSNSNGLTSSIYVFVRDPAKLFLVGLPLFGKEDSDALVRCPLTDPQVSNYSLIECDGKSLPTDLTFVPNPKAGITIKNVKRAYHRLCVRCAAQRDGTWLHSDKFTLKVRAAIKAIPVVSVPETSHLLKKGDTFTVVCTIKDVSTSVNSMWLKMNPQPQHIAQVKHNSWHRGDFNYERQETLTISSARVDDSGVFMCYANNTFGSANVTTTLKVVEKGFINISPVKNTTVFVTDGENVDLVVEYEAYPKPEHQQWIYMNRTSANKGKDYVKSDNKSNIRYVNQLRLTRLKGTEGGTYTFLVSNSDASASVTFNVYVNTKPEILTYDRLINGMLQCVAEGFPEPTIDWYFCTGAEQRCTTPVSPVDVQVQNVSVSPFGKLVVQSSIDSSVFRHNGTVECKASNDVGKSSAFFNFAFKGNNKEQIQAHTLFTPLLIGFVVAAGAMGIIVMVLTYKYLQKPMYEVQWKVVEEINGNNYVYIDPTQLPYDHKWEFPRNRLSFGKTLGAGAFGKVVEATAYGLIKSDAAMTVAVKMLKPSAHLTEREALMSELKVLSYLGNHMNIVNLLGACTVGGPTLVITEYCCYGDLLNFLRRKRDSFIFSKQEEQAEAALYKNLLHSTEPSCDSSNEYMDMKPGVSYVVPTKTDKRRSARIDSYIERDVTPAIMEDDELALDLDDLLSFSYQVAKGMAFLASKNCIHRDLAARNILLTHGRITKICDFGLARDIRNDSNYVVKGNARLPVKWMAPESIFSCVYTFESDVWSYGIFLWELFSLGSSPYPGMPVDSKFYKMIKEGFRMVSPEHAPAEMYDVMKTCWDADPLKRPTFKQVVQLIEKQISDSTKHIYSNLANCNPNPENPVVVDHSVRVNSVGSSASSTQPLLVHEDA

B1: TGFβ-activated kinase 1 (TAK1) (enzyme, UniProt Q62073 1-579)
chain: MSTASAASSSSSSSASEMIEAPSQVLNFEEIDYKEIEVEEVVGRGAFGVVCKAKWRAKDVAIKQIESESERKAFIVELRQLSRVNHPNIVKLYGACLNPVCLVMEYAEGGSLYNVLHGAEPLPYYTAAHAMSWCLQCSQGVAYLHSMQPKALIHRDLKPPNLLLVAGGTVLKICDFGTACDIQTHMTNNKGSAAWMAPEVFEGSNYSEKCDVFSWGIILWEVITRRKPFDEIGGPAFRIMWAVHNGTRPPLIKNLPKPIESLMTRCWSKDPSQRPSMEEIVKIMTHLMRYFPGADEPLQYPCQYSDEGQSNSATSTGSFMDIASTNTSNKSDTNMEQVPATNDTIKRLESKLLKNQAKQQSESGRLSLGASRGSSVESLPPTSEGKRMSADMSEIEARIVATAGNGQPRRRSIQDLTVTGTEPGQVSSRSSSPSVRMITTSGPTSEKPARSHPWTPDDSTDTNGSDNSIPMAYLTLDHQLQPLAPCPNSKESMAVFEQHCKMAQEYMKVQTEIALLLQRKQELVAELDQDEKDQQNTSRLVQEHKKLLDENKSLSTYYQQCKKQLEVIRSQQQKRQGTS
B2: Nemo-like kinase (NLK) (enzyme, UniProt O54949 1-527)
chain: MSLCGTRANAKMMAAYNGGTSAAAAGHHHHHHHHLPHLPPPHLHHHHHPQHHLHPGSAAAVHPVQQHTSSAAAAAAAAAAAAAMLNPGQQQPYFPSPAPGQAPGPAAAAPAQVQAAAAATVKAHHHQHSHHPQQQLDIEPDRPIGYGAFGVVWSVTDPRDGKRVALKKMPNVFQNLVSCKRVFRELKMLCFFKHDNVLSALDILQPPHIDYFEEIYVVTELMQSDLHKIIVSPQPLSSDHVKVFLYQILRGLKYLHSAGILHRDIKPGNLLVNSNCVLKICDFGLARVEELDESRHMTQEVVTQYYRAPEILMGSRHYSNAIDIWSVGCIFAELLGRRILFQAQSPIQQLDLITDLLGTPSLEAMRTACEGAKAHILRGPHKQPSLPVLYTLSSQATHEAVHLLCRMLVFDPSKRISAKDALAHPYLDEGRLRYHTCMCKCCFSTSTGRVYTSDFEPVTNPKFDDTFEKNLSSVRQVKEIIHQFILEQQKGNRVPLCINPQSAAFKSFISSTVAQPSEMPPSPLVWE

Experiments:
[1] = target: c-Kit receptor tyrosine kinase (mouse (endogenous in primary aortic SMC)) (UniProt P05532); experiment: co-IP; ~200 µg lysate (RIPA buffer) of primary mouse aortic SMC incubated at 4 °C for 4 h with 1 µg anti-c-Kit or anti-TAK1 antibody and Protein A/G PLUS-Agarose; beads washed with cold RIPA buffer; Western blot
[2] = target: T1, TGFβ-activated kinase 1 (TAK1) (mouse (endogenous in primary aortic SMC)) (UniProt Q62073); experiment: as above
T1 sequence: B1 chain

| Binder | binding [1] | binding [2] |
| --- | --- | --- |
| B1 | binds |  |
| B2 | binds | binds |
